Data as given in PubChem BioAssay AID624297 (National Center for Advancing Translational Sciences (NCATS), 2012).
Out of some 340,000 compounds screened, about 6,200 (1.8%) were called active. The shares of active, inactive and inconclusive entries below differ from those in the screen. Calls come from the whole dose curve; as a rule, active = well fitted activation curve with a large enough effect; inconclusive = small, poorly fitted or top-dose-only effect; inactive = no such curve, though single readings can be large or run the other way. Potencies of inconclusive entries are doubtful fits and often do not repeat.

Assay: A quantitative high throughput screen for small molecules that induce DNA re-replication in SW480 colon adenocarcinoma cells. For re-replication activation: % of control where 0% means no effect. Note: nearly all actives have a fitted effect of over 55% in size.
Details: Hoechst DNA content imaging, 48 h; re-replication activation: at 46.1 µM (top of the series) unless noted
Summary of the method: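 Compounds, transferred as 23 nL by pin tool, were incubated with cells for 48 hr; DNA content per nucleus was then quantified by Hoechst staining and fluorescence plate imaging.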
Potency is the fitted concentration of half-maximal effect.

Row | SMILES | Potency | re-replication activation
1 | COC(=O)c1cc(C)[nH]c2c(C)cc3nc4ccccc4c3c12 | inconclusive: 23.1 µM [activator, single point] | –
2 | Cn1c(=O)oc2cc(S(=O)(=O)N3CCC(C(=O)N4CCN(c5ccc(F)cc5)CC4)CC3)ccc21 | – | inconclusive: 85.6% [activator]
3 | O=C(Nc1ccccc1Oc1ccccc1)c1cnccn1 | inactive | –
4 | Cc1ccc(-c2ccc(NC(=O)C3C4C=CC(C4)C3C(=O)O)cc2)o1 (centres undefined) | inconclusive: 20.6 µM [activator, partial curve, poor fit] | –
5 | COc1ccc(S(=O)(=O)N2CCCC(C(=O)NCc3ccco3)C2)cc1Cl (centres undefined) | inconclusive: 29.1 µM [activator, partial curve, poor fit] | –
6 | CCCN(Cc1cc2cc(OC)ccc2[nH]c1=O)C(=O)c1ccncc1 | inconclusive: 16.4 µM [activator, single point] | –
7 | C=CCNC(=O)C1CC(=O)N(c2ccc(OCC(=O)Nc3ccc(Cl)c(C(F)(F)F)c3)cc2)C1 (centres undefined) | inconclusive: 23.1 µM [activator, partial curve, poor fit] | –
8 | CSc1cccc(CN2CCC(Oc3ccc(C(=O)N4CCCCC4)cc3)CC2)c1 | inconclusive: 29.1 µM [activator, single point] | –
9 | Cc1ccc(C(=O)O)cc1N1C(=O)c2cccc3c([N+](=O)[O-])ccc(c23)C1=O | inconclusive: 29.1 µM [activator, single point] | –
10 | CC(=O)c1ccc(/C=C/c2nc3ccccc3n2C)o1 | inconclusive: 25.9 µM [activator, single point] | –
11 | CCN(CC(=O)Nc1ccc(Br)cc1)C(=O)c1nc2nc(C)cc(C)n2n1 | inactive | –
12 | CCc1ccc(OCC(=O)N/N=C(\C)c2ccc(O)cc2O)cc1 | inconclusive: 16.4 µM [activator, single point] | –
13 | CCCn1ncc(CN2CCC(n3nccc3NC(=O)c3ccccc3Cl)CC2)c1C | inactive | –
14 | CC1CCN(CC(=O)Nc2cccc([N+](=O)[O-])c2)CC1 | inconclusive: 29.1 µM [activator, single point] | –
15 | O=C(Cn1cnc2nc3n(c2c1=O)CCC3)NCc1ccccc1 | inconclusive: 25.9 µM [activator, single point] | –
16 | CC(C)Cn1c(N)c(C(=O)COC(=O)CCc2nc3ccccc3s2)c(=O)n(C)c1=O | inactive | –
17 | O=C(CCC(=O)N1CCOc2ccccc21)NCc1cccnc1 | inactive | –
18 | CCCn1c2ccccc2c2cnn(CC(=O)NCCCN3C(C)CCCC3C)c(=O)c21 (centres undefined) | – | inconclusive: 89.3% [activator]
19 | CC(=O)c1ccc(OCc2cc(C(=O)N(C)CCOc3ccc(C)cc3)no2)cc1 | inconclusive: 29.1 µM [activator, single point] | –
20 | CCOC(=O)C1=CN(C)C=C(C(=O)OCC)C1c1ccsc1 | inconclusive: 32.6 µM [activator, partial curve, poor fit] | –
21 | CSc1nc2c(c(=O)n1Cc1ccccc1)SC(C)C2 (centres undefined) | inconclusive: 23.1 µM [activator, partial curve, poor fit] | –
22 | Cc1nn2c(=O)cc(COC(=O)c3c(F)cccc3Cl)nc2s1 | inactive | –
23 | COc1ccc([N+](=O)[O-])cc1NC(=O)COC(=O)C1CC1 | inconclusive: 5.8 µM [activator, single point] | –
24 | Cc1cccc(CN2C(=O)N/C(=C/c3ccc(C)s3)C2=O)c1 | inconclusive: 29.1 µM [activator, single point] | –
25 | O=C(CSc1nc(Nc2ccccc2)nc(N2CCOCC2)n1)NC1CCCCC1 | inconclusive: 29.1 µM [activator, single point] | –

Random excerpt: two entries already listed, in no set order.
Row | SMILES | Potency | re-replication activation
11 | CCN(CC(=O)Nc1ccc(Br)cc1)C(=O)c1nc2nc(C)cc(C)n2n1 | inactive | –
6 | CCCN(Cc1cc2cc(OC)ccc2[nH]c1=O)C(=O)c1ccncc1 | inconclusive: 16.4 µM [activator, single point] | –

Next part.

Row | SMILES | Potency | re-replication activation
26 | O=C(N/N=C1\CCc2ccccc21)c1ccncc1 | inconclusive: 8.2 µM [activator, partial curve, poor fit] | –
27 | O=[N+]([O-])c1cnn(-c2nc(-c3ccccc3)cc(C(F)(F)F)n2)c1 | inactive | –
28 | COc1ccc(C2=NN(C(=O)CSc3ncccn3)C(c3ccc(C)cc3)C2)cc1 (centres undefined) | inconclusive: 0.291 µM [activator, full curve, poor fit] | –
29 | Cc1ccccc1-c1noc(CCC(=O)NCc2ccco2)n1 | – | inactive: -2.5% [at 9.22 µM]
30 | CCC(C)(C)n1nnnc1C(c1ccccc1)N1CCc2ccccc2C1 (centres undefined) | inactive | –
31 | CCc1c(C)nc2cc(-c3ccc(OC)c(OC)c3)nn2c1NCC1CC1 | inactive | –
32 | COC(=O)C1=C(C)N(CCCC(=O)O)C(=O)NC1c1cccc(Cl)c1Cl (centres undefined) | inactive | –
33 | Cc1ccc(S(=O)(=O)N2CCCCC2CCNC(=O)C(=O)NCc2cccnc2)cc1 (centres undefined) | active: 16.4 µM | –
34 | CO/N=C(/CNC(=O)c1ccc(F)cc1)c1ccc(Cl)cc1 | inactive | –
35 | O=C(NCCC1=CCCCC1)c1cc(S(=O)(=O)N2CCCCC2)ccc1Cl | inconclusive: 0.731 µM [activator, full curve, poor fit] | –
36 | O=C(Nc1ccc(Oc2ncccn2)cc1)c1ccco1 | inactive | –
37 | COc1cc(C)c(S(=O)(=O)n2c([N+](=O)[O-])cnc2C)cc1C | inconclusive: 0.0065 µM [activator, full curve, poor fit] | –
38 | COCCCNC(=O)CN1C(=O)/C(=C/c2ccccc2C)Sc2ccccc21 | inactive | –
39 | C=CCc1cccc(/C=N/NC(=O)C[n+]2ccccc2)c1O | inconclusive: 20.6 µM [activator, single point] | –
40 | Cc1csc(SCC(=O)NCc2ccccc2)n1 | – | inactive: 8.43% [at 1.84 µM]
41 | O=S(=O)(Nc1c(S(=O)(=O)c2ccccc2)c2nc3ccccc3nc2n1C1CCCCC1)c1ccccc1 | inactive | –
42 | NC(=O)c1cc(-c2cccnc2)nc2ccc(Br)cc12 | inconclusive: 32.6 µM [activator, single point] | –
43 | Cc1ccc2cc(NC(=O)c3ccc(C(C)(C)C)cc3)ccc2n1 | inconclusive: 20.6 µM [activator, single point] | –
44 | O=c1cnnc(N/N=C/c2ccccn2)[nH]1 | inconclusive: 0.58 µM [activator, full curve] | –
45 | O=C(CSc1nc(-c2ccccc2Cl)ns1)Nc1ccc2c(c1)OCO2 | inconclusive: 29.1 µM [activator, single point] | –
46 | CCN(CCn1cccn1)C(=O)c1cc(COc2ccc(F)c(F)c2)on1 | inconclusive: 29.1 µM [activator, single point] | –
47 | Cc1ccc(-n2c(C)cc3c2CC(C)(C)CC3=O)cc1C | inactive | –
48 | Cc1c(C(c2ccc(F)cc2)c2c(C)n(C)n(-c3ccccc3)c2=O)c(=O)n(-c2ccccc2)n1C | inactive | –
49 | CC1CC(=O)Nc2ccccc2N1C(=O)CSc1ncnc2sccc12 (centres undefined) | inactive | –
50 | O=C(O)CSCC(=O)Nc1cccc2ccccc12 | inconclusive: 6.51 µM [activator, single point] | –

Row | SMILES | Potency | re-replication activation
51 | CCOCCSc1nc2c(c(-c3cccs3)c1C#N)CC/C2=C/c1cccs1 | – | inconclusive: 128% [activator]
52 | COc1ccc(C(=O)C/C(=C\C(=O)c2ccc(C)cc2)c2ccccc2)cc1 | inconclusive: 13 µM [activator, partial curve, poor fit] | –
53 | Cn1c(=O)[nH]c(=O)c2c1nc(N1CCCCC1)n2C/C=N/Nc1ccc(C(=O)O)cc1 | inactive | –
54 | O=C1CC(c2cc(Br)ccc2F)c2cc3c(cc2N1)CCC3 (centres undefined) | active: 1.16 µM | –
55 | CN(C)/C=C(\C(=O)c1cccc(Cl)c1)c1nnnn1-c1ccccc1 | inconclusive: 18.4 µM [activator, single point] | –
56 | Cc1nn(-c2ccccc2)c(C)c1C(=O)OCC(=O)Nc1ccccc1 | inactive | –
57 | COc1ccc(CN(C)Cc2nc(Cc3cccc(F)c3)no2)c2cccnc12 | inactive | –
58 | CCc1ccc(-c2csc3[n+]2CCN3C(C)=O)cc1 | active: 2.31 µM | –
59 | CCNC(=S)N/N=C/c1ccccc1[N+](=O)[O-] | inactive | –
60 | COc1ccc(Nc2ncc(C(=O)O)c3ccccc23)cc1 | inactive | –
61 | CCOc1cc(CNc2ccc(O)cc2)ccc1OCc1ccc(Cl)cc1Cl | inconclusive: 2.31 µM [activator, partial curve, poor fit] | –
62 | CCOc1cc(C(=O)Nc2ccc(N3CCOCC3)cc2)cc(Br)c1OC | inconclusive: 29.1 µM [activator, single point] | –
63 | S=c1[nH]nc(C2CCCCC2)n1/N=C/c1cccc(Cl)c1Cl | inactive | –
64 | CCOC(=O)C(Sc1nnc(-c2ccncc2)o1)C(C)=O (centres undefined) | inconclusive: 18.4 µM [activator, single point] | –
65 | O=C1c2ccccc2C(O)(c2ccccc2)N1C1CC1 (centres undefined) | inconclusive: 14.6 µM [activator, single point] | –
66 | Fc1ccc(-c2csc(N3CCSCC3)n2)cc1 | inactive | –
67 | Cc1ccc2oc(-c3ccc(NC(=O)c4ccc5c(c4)OCO5)cc3)nc2c1 | inconclusive: 18.4 µM [activator, single point] | –
68 | O=C(CCS(=O)(=O)c1ccc(Br)cc1)N1CCN(c2ccc(F)cc2)CC1 | inactive | –
69 | COc1ccc(C2c3ccc4ccccc4c3Oc3ncn(Cc4ccco4)c(=N)c32)cc1OC (centres undefined) | inconclusive: 29.1 µM [activator, single point] | –
70 | O=C(CSCc1cccc(Br)c1)N=Nc1c(O)[nH]c2ccccc12 | inactive | –
71 | CCCCN(CC)CCCNC(=O)C1CCN(c2ncnc3c2sc2cccc(F)c23)CC1 | inconclusive: 29.1 µM [activator, single point] | –
72 | COc1ccc(CC(=O)Nc2nn(C)c3nc4c(C)cccc4cc23)cc1 | inconclusive: 5.8 µM [activator, partial curve, poor fit] | –
73 | Cc1ccccc1N1C(=O)c2cc(N)ccc2N/C1=C\F | inactive | –
74 | Nc1nc(SCc2ccccc2)c2ncn(C3CCCCC3)c2n1 | inactive | –

As entered above.
Value of CCOC(=O)C(Sc1nnc(-c2ccncc2)o1)C(C)=O (centres undefined) under Potency: inconclusive: 18.4 µM [activator, single point]
Value of O=C(CCS(=O)(=O)c1ccc(Br)cc1)N1CCN(c2ccc(F)cc2)CC1 under Potency: inactive
Value of COc1ccc(C2c3ccc4ccccc4c3Oc3ncn(Cc4ccco4)c(=N)c32)cc1OC (centres undefined) under Potency: inconclusive: 29.1 µM [activator, single point]
